Results as given in PMC3108997.
These are yes or no findings as the source states them, for the method shown. Binding seen in cells or lysates may run through a third protein. Some results given as binding are weak or reduced against the parent protein; the word gives no strength.

By UniProt entry, the sequences of proteins in these tests, tags left out.
UniProt P09067: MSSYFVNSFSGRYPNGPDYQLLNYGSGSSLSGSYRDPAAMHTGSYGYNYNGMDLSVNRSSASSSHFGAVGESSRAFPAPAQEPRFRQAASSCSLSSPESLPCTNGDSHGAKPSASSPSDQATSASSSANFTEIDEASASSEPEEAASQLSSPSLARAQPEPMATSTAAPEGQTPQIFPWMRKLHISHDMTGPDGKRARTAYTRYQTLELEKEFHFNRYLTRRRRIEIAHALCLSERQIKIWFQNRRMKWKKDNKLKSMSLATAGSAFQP

Biological target: HOXB5 (human) (UniProt P09067)
Assay: co-IP; nuclear extract of transfected SK-N-SH cells, pre-cleared with Protein G-Agarose; IP with mouse anti-HOXB5 (133C3a) or non-immunized mouse IgG control, 4°C, 3 hours; blot with anti-NKX2-1 (F-12)

B1: NKX2-1 (protein, UniProt P43699 1-371)
chain: MSMSPKHTTPFSVSDILSPLEESYKKVGMEGGGLGAPLAAYRQGQAAPPTAAMQQHAVGHHGAVTAAYHMTAAGVPQLSHSAVGGYCNGNLGNMSELPPYQDTMRNSASGPGWYGANPDPRFPAISRFMGPASGMNMSGMGGLGSLGDVSKNMAPLPSAPRRKRRVLFSQAQVYELERRFKQQKYLSAPEREHLASMIHLTPTQVKIWFQNHRYKMKRQAKDKAAQQQLQQDSGGGGGGGGTGCPQQQQAQQQSPRRVAVPVLVKDGKPCQAGAPAPGAASLQGHAQQQAQHQAQAAQAAAAAISVGSGGAGLGAHPGHQPGSAGQSPDLAHHAASPAALQGQVSSLSHLNSSGSDYGTMSCSTLLYGRTW
binding: binds
